Results are given in words; binding and its absence hold for the method and conditions named. In cells and extracts the contact can be indirect. A yes stands for co-enrichment or nearness to the bait. Other partners may have been found. For some assays here: A no says only that the protein was not detected with the bait.
Experiments:
Assay in all cases: affinity purification with mass spectrometry
LCOR (human) = target: T1, LCOR (human) (UniProt Q96JN0)
T1 sequence: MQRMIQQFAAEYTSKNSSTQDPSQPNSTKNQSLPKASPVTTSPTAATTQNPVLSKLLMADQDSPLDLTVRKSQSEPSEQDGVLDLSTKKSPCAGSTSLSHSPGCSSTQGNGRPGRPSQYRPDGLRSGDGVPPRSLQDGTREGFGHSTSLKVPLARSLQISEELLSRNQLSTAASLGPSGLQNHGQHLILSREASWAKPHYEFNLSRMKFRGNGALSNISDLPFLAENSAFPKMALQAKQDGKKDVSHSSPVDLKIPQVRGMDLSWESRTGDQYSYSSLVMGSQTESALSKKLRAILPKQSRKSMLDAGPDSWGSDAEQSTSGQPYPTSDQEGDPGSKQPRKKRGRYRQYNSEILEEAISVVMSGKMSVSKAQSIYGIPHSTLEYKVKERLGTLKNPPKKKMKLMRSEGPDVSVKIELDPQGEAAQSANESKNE

By UniProt entry, the sequences of proteins in these tests, tags left out.
UniProt Q92560: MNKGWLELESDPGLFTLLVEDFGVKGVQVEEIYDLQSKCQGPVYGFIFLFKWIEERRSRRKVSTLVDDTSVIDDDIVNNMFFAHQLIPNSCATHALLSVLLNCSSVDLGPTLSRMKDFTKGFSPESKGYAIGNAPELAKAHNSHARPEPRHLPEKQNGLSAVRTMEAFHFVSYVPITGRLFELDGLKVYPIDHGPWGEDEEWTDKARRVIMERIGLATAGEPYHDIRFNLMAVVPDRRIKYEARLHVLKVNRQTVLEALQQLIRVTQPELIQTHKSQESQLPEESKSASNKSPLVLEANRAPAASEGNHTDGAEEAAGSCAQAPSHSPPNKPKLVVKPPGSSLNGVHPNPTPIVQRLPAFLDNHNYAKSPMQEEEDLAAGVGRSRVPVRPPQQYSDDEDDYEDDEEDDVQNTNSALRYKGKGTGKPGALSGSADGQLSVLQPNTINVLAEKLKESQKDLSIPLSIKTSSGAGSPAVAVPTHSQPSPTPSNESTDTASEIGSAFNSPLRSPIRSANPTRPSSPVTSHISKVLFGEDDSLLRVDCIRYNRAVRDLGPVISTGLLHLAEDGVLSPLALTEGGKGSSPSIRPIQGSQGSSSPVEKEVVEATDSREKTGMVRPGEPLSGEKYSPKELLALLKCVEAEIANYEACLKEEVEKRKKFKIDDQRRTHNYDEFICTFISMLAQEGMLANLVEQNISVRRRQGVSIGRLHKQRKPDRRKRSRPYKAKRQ
UniProt Q76L83: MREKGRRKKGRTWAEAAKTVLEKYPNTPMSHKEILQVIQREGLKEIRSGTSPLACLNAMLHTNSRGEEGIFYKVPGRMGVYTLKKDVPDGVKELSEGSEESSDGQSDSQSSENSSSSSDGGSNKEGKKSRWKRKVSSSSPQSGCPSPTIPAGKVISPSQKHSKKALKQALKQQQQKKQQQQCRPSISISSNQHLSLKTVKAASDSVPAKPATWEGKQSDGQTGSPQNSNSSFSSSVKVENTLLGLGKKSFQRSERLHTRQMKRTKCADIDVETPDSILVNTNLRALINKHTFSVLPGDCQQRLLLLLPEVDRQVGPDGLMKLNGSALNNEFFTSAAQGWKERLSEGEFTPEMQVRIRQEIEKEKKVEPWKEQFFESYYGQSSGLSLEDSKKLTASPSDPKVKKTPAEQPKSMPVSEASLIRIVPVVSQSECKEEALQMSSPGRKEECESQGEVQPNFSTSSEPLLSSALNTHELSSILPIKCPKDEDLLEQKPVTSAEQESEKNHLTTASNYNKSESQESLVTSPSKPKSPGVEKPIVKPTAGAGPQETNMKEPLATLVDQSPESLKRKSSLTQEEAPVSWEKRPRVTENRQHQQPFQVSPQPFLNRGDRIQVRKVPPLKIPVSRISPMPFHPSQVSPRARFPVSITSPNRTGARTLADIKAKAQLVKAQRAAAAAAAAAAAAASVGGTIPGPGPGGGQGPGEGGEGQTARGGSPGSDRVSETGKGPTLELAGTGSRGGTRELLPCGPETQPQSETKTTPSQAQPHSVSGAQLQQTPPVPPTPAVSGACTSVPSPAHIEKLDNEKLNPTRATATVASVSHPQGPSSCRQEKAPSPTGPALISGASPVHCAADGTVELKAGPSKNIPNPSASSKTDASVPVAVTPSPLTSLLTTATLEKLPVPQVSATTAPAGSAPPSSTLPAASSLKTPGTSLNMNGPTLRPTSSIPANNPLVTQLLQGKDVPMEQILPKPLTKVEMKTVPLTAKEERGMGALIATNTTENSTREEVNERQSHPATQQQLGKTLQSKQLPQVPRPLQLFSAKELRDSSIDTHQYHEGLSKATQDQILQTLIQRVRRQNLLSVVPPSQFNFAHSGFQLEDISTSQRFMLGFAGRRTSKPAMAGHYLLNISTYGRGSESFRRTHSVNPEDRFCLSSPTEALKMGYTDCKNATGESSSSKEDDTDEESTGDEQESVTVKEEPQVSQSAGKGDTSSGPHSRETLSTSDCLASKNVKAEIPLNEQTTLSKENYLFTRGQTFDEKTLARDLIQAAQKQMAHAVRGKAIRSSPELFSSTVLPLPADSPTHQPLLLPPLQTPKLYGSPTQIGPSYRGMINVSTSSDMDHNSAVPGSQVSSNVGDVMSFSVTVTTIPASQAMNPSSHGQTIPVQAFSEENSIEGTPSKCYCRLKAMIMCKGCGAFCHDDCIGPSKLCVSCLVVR
UniProt Q8IXJ9: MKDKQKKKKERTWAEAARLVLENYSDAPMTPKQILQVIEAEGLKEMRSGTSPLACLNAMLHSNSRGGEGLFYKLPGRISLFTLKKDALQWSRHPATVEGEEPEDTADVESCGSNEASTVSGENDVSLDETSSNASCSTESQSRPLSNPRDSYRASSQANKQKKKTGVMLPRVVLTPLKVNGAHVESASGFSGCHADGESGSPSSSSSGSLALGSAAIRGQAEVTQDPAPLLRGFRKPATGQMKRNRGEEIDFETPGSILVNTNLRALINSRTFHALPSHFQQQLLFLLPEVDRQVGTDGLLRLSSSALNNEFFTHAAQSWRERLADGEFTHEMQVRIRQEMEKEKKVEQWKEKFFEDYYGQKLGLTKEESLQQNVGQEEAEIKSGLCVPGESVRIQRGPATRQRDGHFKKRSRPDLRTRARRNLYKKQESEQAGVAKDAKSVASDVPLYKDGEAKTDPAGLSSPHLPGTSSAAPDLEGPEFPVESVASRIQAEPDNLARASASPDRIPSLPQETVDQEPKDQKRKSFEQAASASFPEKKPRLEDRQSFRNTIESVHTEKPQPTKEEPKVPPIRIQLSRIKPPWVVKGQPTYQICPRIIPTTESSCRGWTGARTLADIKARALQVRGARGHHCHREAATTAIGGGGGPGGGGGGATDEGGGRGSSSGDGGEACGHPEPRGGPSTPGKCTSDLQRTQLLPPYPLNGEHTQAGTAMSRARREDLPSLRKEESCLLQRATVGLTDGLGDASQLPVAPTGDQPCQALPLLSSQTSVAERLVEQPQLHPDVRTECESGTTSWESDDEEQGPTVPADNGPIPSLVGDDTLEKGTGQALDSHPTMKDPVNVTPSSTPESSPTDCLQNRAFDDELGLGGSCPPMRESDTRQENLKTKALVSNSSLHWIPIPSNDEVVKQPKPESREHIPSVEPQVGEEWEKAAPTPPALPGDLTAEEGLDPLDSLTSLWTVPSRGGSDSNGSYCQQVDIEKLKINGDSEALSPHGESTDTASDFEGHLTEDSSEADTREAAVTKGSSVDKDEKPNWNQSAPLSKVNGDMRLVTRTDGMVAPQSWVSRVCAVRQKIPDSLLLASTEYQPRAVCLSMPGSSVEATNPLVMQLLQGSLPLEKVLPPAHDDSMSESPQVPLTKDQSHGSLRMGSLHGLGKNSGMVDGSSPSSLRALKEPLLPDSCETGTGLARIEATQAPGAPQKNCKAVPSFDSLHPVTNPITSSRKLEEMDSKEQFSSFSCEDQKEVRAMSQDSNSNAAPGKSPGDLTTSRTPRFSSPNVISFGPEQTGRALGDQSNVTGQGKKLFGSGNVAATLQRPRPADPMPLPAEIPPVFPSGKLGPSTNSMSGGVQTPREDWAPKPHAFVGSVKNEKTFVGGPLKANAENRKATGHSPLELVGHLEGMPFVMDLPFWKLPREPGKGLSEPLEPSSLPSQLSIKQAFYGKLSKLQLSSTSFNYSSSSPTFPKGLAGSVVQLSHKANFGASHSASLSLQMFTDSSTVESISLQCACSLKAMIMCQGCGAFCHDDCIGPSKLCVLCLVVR
UniProt P31629: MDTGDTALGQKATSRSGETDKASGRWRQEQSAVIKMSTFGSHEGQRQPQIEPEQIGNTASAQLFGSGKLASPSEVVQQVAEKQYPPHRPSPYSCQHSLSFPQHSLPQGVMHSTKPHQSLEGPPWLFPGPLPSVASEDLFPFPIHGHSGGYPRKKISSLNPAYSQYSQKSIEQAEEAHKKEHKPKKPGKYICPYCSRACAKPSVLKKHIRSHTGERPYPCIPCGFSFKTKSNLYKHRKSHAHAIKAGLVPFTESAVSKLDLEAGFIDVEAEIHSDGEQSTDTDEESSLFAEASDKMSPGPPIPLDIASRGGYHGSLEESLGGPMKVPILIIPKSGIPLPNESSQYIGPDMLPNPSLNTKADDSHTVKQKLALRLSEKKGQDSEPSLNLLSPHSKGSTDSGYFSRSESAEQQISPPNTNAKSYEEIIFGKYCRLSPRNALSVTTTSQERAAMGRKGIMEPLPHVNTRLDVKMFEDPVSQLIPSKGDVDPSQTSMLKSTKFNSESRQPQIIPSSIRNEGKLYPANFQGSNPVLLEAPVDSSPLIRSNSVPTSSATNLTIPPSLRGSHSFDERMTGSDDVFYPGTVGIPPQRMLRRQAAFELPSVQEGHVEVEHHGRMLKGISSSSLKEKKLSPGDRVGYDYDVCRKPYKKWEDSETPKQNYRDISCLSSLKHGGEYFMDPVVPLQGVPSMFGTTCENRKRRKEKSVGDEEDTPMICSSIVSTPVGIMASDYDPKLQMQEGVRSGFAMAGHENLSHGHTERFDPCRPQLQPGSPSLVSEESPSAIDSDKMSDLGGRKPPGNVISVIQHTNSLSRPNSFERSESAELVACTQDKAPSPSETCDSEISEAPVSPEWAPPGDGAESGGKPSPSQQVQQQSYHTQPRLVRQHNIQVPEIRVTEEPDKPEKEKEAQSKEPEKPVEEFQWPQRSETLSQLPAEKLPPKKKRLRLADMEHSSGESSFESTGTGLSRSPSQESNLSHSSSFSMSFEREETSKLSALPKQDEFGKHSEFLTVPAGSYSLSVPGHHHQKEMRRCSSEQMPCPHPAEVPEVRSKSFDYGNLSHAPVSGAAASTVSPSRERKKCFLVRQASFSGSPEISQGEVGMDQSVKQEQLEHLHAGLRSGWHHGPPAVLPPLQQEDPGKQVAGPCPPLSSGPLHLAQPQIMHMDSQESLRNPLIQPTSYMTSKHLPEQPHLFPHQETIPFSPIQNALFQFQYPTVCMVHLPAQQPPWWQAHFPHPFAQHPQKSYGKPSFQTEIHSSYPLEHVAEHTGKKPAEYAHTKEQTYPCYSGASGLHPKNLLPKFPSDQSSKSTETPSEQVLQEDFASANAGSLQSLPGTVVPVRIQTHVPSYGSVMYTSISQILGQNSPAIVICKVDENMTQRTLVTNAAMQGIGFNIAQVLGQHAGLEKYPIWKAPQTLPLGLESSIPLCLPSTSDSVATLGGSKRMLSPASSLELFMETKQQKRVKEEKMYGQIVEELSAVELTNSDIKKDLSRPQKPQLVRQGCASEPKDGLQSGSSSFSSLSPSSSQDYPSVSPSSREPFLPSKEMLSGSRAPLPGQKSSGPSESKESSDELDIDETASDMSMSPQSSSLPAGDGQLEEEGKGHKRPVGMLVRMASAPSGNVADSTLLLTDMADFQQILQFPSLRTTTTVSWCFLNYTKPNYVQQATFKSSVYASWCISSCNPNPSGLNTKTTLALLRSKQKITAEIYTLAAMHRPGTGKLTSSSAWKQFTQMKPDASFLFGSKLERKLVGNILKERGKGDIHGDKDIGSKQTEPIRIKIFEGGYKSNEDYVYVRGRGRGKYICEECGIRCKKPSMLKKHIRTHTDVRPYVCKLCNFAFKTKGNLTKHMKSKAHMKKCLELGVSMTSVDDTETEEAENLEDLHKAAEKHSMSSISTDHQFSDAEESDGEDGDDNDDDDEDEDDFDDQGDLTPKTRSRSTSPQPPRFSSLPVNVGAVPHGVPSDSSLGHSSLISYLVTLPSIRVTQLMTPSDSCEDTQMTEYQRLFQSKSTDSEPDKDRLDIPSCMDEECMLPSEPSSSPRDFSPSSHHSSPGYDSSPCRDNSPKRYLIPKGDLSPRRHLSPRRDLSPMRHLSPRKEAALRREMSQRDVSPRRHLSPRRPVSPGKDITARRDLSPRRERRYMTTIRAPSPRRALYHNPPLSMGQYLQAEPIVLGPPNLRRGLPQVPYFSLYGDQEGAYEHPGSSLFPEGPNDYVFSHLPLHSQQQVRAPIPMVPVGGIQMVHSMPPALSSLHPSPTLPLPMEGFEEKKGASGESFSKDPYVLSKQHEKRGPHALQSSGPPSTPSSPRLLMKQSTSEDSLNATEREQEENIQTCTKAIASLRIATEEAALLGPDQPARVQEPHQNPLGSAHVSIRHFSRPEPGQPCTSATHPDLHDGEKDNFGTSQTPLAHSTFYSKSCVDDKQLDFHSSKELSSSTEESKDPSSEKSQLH

BAP1 (human) = BAP1 (human) (UniProt Q92560)
ASXL2 (human) = ASXL2 (human) (UniProt Q76L83)
ASXL1 (human) = ASXL1 (human) (UniProt Q8IXJ9)
OGT1 (human) = target: T2, OGT1 (human) (UniProt O15294)
T2 sequence: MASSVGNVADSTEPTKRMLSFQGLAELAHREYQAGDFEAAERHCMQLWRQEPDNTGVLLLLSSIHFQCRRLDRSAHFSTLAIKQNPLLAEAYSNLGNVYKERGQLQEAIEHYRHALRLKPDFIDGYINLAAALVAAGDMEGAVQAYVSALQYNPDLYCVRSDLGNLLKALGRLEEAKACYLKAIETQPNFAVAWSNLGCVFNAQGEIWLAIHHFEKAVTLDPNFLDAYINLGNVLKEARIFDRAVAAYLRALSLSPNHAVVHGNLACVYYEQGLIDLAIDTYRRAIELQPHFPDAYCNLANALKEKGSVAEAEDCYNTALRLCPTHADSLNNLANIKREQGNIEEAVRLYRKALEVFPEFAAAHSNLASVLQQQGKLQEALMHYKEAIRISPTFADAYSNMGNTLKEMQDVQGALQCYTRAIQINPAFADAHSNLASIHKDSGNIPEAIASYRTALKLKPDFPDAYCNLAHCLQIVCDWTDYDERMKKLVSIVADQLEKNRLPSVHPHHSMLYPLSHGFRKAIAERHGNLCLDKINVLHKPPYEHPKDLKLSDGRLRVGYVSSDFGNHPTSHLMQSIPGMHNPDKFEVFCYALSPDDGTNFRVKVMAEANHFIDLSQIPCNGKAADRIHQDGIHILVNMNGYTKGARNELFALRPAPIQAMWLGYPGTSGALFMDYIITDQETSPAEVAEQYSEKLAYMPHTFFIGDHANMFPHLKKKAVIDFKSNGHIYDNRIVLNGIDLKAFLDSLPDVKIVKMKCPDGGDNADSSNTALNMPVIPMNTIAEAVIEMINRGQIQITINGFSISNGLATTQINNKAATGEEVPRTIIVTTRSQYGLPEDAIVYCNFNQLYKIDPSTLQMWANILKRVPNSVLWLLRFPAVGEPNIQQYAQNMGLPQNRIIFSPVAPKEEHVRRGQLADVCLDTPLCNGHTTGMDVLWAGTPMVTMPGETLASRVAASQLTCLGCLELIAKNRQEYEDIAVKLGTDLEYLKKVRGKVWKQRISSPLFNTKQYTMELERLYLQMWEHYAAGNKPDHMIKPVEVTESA

Substance	binding (LCOR (human))	binding (BAP1 (human))	binding (ASXL2 (human))	binding (ASXL1 (human))	binding (OGT1 (human))
CTBP2 (from UniProt P56545 1-445)	binds	–	–	–	–
ZEP2 (from UniProt P31629 1-2446)	–	no binding	no binding	no binding	binds

Reference: article doi:10.1101/059964
